The values that follow come from paper PMC11263360, “The structural basis of the activation and inhibition of DSR2 NADase by phage proteins” (Nature Communications, 2024).

No constants are given. Whether binding was seen depends on the method and setting. Some entries that bind do so weakly or less than the wild type.

The target in the assay is DSR2 from Bacillus subtilis 29 R, wild type (Bacillus subtilis 29 R) (UniProt P0DXN8). In words: SEC; gel filtration profiles of purified DSR2 wild type and mutants; column and buffer of this analysis not stated; both purified. For orientation: SEC sorts molecules by how far they enter the pores of the column.

B1: DSR2 from Bacillus subtilis 29 R, wild type (enzyme, UniProt P0DXN8 1-1005, looked up)
chain: MVKVDLESKRYGEKLKEVFLMLDNNVVECIKEITESSRNGKLVFFVGAGVSTLSDYPQWWRLVDKYHEELYGSPKKGNYSSDEYLRIPQIFYNVKGEMAFDGILKDFFQVDKPTNPIHDKILAMNPAHVITTNYDNLIDTACWKRGKYFSVISAEEDVANATSSRYLLKVHGDFRKGFKGENVVLKEDDYLNYDQNYPLISNLMKTIIATHTIVFIGYGLGDYNINMLLNWVRKLQKDSFHKPFFIRTDPSPIENETLIYYENKGLRIIDAASLIDSNEYDYLERYSAVMDLLIESQENKFITKDDEVIDYIYGKISPLFALQYIRKIDLKHVFEYDYHFEVNGTVVRHKNKGFGYMERFFELKESCDERSKLSKKQYERFNALFNFFEKNGVICMAKDAGTLNTSIEINSLAYHGKYDVMKKFIEEQSVSIEDDYKKAFFLACLGRWEESYDLYSNIILNSIDESNGCVYYLSQINRYRIYQSITQAVTQFNGLGLLTFGRHYKPFTDEFLARIEREMTNFNIDDLFNGMPFEFQKKYKILEFLSDNQFLYDDTVKLFELTNKVRSEMSEGSYSFGMSSDIVVLLRLYDNLRFLYENCLWSVSFHEFHQYIRNSMSLLIEKAEYERTRDIDELGFSFFGKKSGFFMEYYDFVNISRHFKIDDIKNLERSCSIDKIRFGEQEKIEEYLVGIAEEITKQFSANGMNVVFYTQFISEAKAALYFAKYVKLSEEGLGKIVKALLFYFPERDLDIGKRYVWLERLTKCNELPKSIISIIDDFLVLQAEKHIDQNYSEVSSNGLYSRDYGALIKHFEKNFISKRLSEITLCLTQDKQKQIDFLFKLLPLLSTNAKSHLLSFKSVENINDLMNGIRIGLIDEFTPEHEELIIEYLETRKVNYIVEKEKGIQTFSSNDYMSTFGIWYFLEEINNSKMEEFIGMDDQYDFFVDPENFDYKKFIPSWLKNYNDKLLGKIAGNKHMKHHVIEVLKERVKNSNDKRYLEILMNYFI
notes: DSR2, Sir2 domain-containing NADase, Bacillus subtilis 29 R, WP_029317421, full length (domains described over residues 1-1005); Cloned into pRSF-32M or pET-32M.3C (both add N-terminal thioredoxin and 6xHis); Crosslinked with BS3 for part of the cryo-EM data; also called WT DSR2; wild-type (WT) DSR2; source: E. coli BL21 (DE3), purified (Ni-NTA, size exclusion); for the DSR2-DSAD1 complex …
With B1, the binding result is “binds”.
